Experimental data as given in the supplement of paper PMC7858590.
“And” between values parts separate entries of the source, which are not always exact repeats. Equal entries are not always repeated. ± gives the standard deviation of the averaged measurements. In all, about 3,800 compounds were measured (“cell shape (eccentricity) Z-score vs DMSO control”: median about 1.1, lowest 2% from about -4.7 on). Some of the results follow.

Test system: human monocyte-derived macrophages (M0)
Test: cell shape (eccentricity) Z-score vs DMSO control; higher = more elongated, M2-like morphology
Settings: 20 µM; 24 h; macrophage state: M0 (M-CSF)

SMILES | cell shape (Z-score)
OC[C@H]1O[C@@H](n2cnc3c(NCc4ccco4)ncnc32)[C@H](O)[C@@H]1O | -3.05
CC1(C)O[C@@H]2CC3C4C[C@H](F)C5=CC(=O)CC[C@]5(C)C4[C@@H](O)C[C@]3(C)[C@]2(C(=O)CO)O1 (some centres undefined) | -0.585
CC(C)NCC(O)COc1ccc(CCOCC2CC2)cc1 (centres undefined) | 1.97
C=C1C(=O)O[C@@H]2C3=C(C)CC[C@]34O[C@@H](C[C@@H]4C)[C@H]12 | -3.31 ± 3.9
OC[C@H]1O[C@@H](OCc2ccccc2)[C@H](O[C@@H]2OC[C@](O)(CO)[C@H]2O)[C@@H](O)[C@@H]1O | -0.784 ± 0.66
CCSC(=N)N | -1.01
OC[C@H](Cc1ccccc1)Nc1nc(Oc2ccc3c(c2)CCC3)nc2c1ncn2Cc1ccc(-c2ccccc2)cc1 | 9.9
COc1cccc2oc(-c3ccccc3)cc(=O)c12 | -0.482 ± 2.3
COC1=CC(=O)CC(C)C12Oc1cc(OC)cc(OC)c1C2=O (centres undefined) | -1.79
Cc1ncc([N+](=O)[O-])n1CC(O)CCl (centres undefined) | 1.9
C=C1CC[C@H]2[C@](C)(CCC[C@]2(C)C(=O)OC)[C@H]1CC/C(C)=C/C(=O)O | 1.3
C[N+]1(C)C2CC[C@H]1C[C@@H](OC(=O)C(O)c1ccccc1)C2 (some centres undefined) | 1.91
COc1cc(C=Cc2ccc(OC)cc2OC)cc(OC)c1 | 3.14
CC[C@H](C)C(=O)O[C@H]1C[C@@H](C)C=C2C=C[C@H](C)[C@H](CC[C@@H]3C[C@@H](O)CC(=O)O3)[C@H]21 | -1.06
OC1C=CC(O)C23OC12C(O)C=CC31Oc2cccc3cccc(c23)O1 (centres undefined) | -0.329
CN=c1nc(-c2ccccc2)n(-c2ccccc2)s1 | 4.02
OC(CCCN1CCN(c2ncc(F)cn2)CC1)c1ccc(F)cc1 (centres undefined) | 3.37
C=C(C)C(=O)O[C@@H]1C2=C(C)C(=O)OC2(O)CC23OC2CC[C@H](C)[C@@]13C (some centres undefined) | 1.41
COc1ccc(/C=C/C(=O)c2ccc(O)cc2O)cc1 | -5.34
CCOc1cc(/C=C2\C(=O)N(c3ccccc3)N=C2C)cc(Cl)c1OCC(=O)OC | 1.49
C/C=C(/C)C(=O)OC(C)(C)C1Cc2cc3ccc(=O)oc3cc2O1 (centres undefined) | 2.97
C=CCNC(=O)c1cc([N+](=O)[O-])cc2c(=O)[nH]c(Nc3ccc(Cl)c(Cl)c3)nc12 | 1.34

No new results follow: 2 of the compounds above.
SMILES | cell shape (Z-score)
CN=c1nc(-c2ccccc2)n(-c2ccccc2)s1 | 4.02
OC(CCCN1CCN(c2ncc(F)cn2)CC1)c1ccc(F)cc1 (centres undefined) | 3.37

Continuation:

SMILES | cell shape (Z-score)
N=C(N)NCCNS(=O)(=O)c1cccc2cnccc12 | 5.63
O=C(OCC1OC(Oc2ccc(O)cc2COC(=O)C2(O)C(O)CCC2(O)C(=O)O)C(O)C(O)C1O)c1ccccc1 (centres undefined) | 0.557
CC(C)CCCC(C)(O)c1ccc(C(=O)O)cc1O (centres undefined) | 0.842
COc1cc(C2OC(c3ccc(O)c(OC)c3)C(C)(O)C2C)ccc1O (centres undefined) | -0.34
Cc1c(C(=O)NN2CCCCC2)nn(-c2ccc(Cl)cc2Cl)c1-c1ccc(I)cc1 | -0.11
CC1(C)CCC(C)(C)c2cc([C@@H](O)C(=O)Nc3ccc(C(=O)O)cc3F)ccc21 | 5.37
COC(=O)c1cc(O)cc(O)c1C(=O)c1c(O)c(Cl)c(C)c(Cl)c1OC | 2.39
O=C(/C=C/c1ccccc1)OC[C@]12O[C@H]1[C@@H](O)[C@@H]1C=CO[C@@H](O[C@@H]3O[C@H](CO)[C@@H](O)[C@H](O)[C@H]3O)[C@@H]12 | -0.606
COC(=O)C[C@H]1C(C)(C)C(=O)[C@@H]2CC3=C4CC(=O)O[C@@H](c5ccoc5)[C@]4(C)CCC3[C@@]1(C)C2=O (some centres undefined) | -1.24
Cc1nc2sccn2c(=O)c1CCN1CCC(=C(c2ccc(F)cc2)c2ccc(F)cc2)CC1 | 4.15
C=C1C(N)CC2CC1C2(C)C (centres undefined) | -2.56
O=C1OCCN1/N=C/c1ccc([N+](=O)[O-])o1 | -1.99
FC(F)c1nc2ccccc2n1-c1nc(N2CCOCC2)nc(N2CCOCC2)n1 | -3.24
COc1ccc(O)cc1 | 0.328
COc1cc2c(c(O)c1CO)C(=O)CCC2O (centres undefined) | -2.26
COc1ccc(OC)c(/C=C/C(=O)O)c1 | 0.305 ± 1.6
O=C(O)Cc1nn(Cc2nc3cc(C(F)(F)F)ccc3s2)c(=O)c2ccccc12 | 1.57
COc1cc(/C=C/c2cc(O)cc(O[C@@H]3O[C@H](CO)[C@@H](O)[C@H](O)[C@H]3O)c2)ccc1O[C@@H]1O[C@H](CO)[C@@H](O)[C@H](O)[C@H]1O | 2.22
C=C1CCC2(C(=O)OC3OC(CO)C(O)C(O)C3OC3OCC(O)C(O)C3O)CCC3(C)C(=CCC4C5(C)CCC(OC6OC(CO)C(O)C(O)C6O)C(C)(CO)C5CCC43C)C2C1 (centres undefined) | 3.19
Fc1ccc(C(c2ccc(F)cc2)N2CCN(C/C=C/c3ccccc3)CC2)cc1 | 1.81
CN(Cc1cnc2nc(N)nc(N)c2n1)c1ccc(C(=O)N[C@@H](CCC(=O)O)C(=O)O)cc1 | 1.41 and 2.41
C=C1[C@@H](C2=CC(=O)OC2)CC[C@@]2(O)[C@@H]1CC1[C@H]2CC[C@@H]2C[C@@H](O[C@H]3O[C@@H](C)[C@@H](O[C@@H]4O[C@H](CO[C@@H]5O[C@H](CO)[C@@H](O)[C@H](O)[C@H]5O)[C@@H](O)[C@H](O)[C@H]4O)[C@H](OC)[C@H]3O)CC[C@]12C (some centres undefined) | -4.99
